Test results: PubChem BioAssay AID504834 (National Center for Advancing Translational Sciences (NCATS), 2011)
Where “and” joins values, the source holds several entries; their conditions need not be identical. Equal entries are not always repeated. The whole screen tested about 320,000 compounds, of which about 22,000 (6.9%) were called active. The inconclusive results got no clear call from the source; some entries with a clear call stand among them for comparison. Calls follow the shape of the dose curve; as a rule, active = well fitted inhibition curve with a large enough effect; inconclusive = small, poorly fitted or top-dose-only effect, or another doubt; inactive = no such curve, though single readings can be large or run the other way. Potencies beside an inconclusive call are fits to weak or partial responses and may not hold up.

Test: Primary qHTS for delayed death inhibitors of the malarial parasite plastid, 96 hour incubation
Conditions: P. falciparum luciferase reporter growth; series mostly up to 28.7 µM; activity change, negative = inhibition: at the top concentration
Summary of the method: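 96 h incubation, 37 C, 5% CO2, of luciferase-reporter P. falciparum-infected RBCs (2% hematocrit, 0.05% parasitemia final) with test compounds; endpoint luminescence.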
% is scaled to controls: 0 for no effect and ±100 for the full control effect; potency is read from the fitted curve at half-maximal effect.

Q: For `COc1ccccc1NC(=O)C1=C(C)NC2=C(C(=O)CC(c3ccc(OC)c(OC)c3)C2)C1c1coc2ccccc2c1=O` (stereo not drawn), which “activity change, negative = inhibition” value is on record?
A: inactive: 0%

Q: Which Potency does the source give for `CC(=O)N1c2ccc(S(=O)(=O)N3CCCCC3)cc2CC1C(=O)NCc1cccc(Cl)c1` (stereo not drawn) here?
A: inconclusive: 10.4 µM [inhibitor, single point]

Q: For `O=C(c1cc(C2CC2)on1)N1CCOCC1`, which Potency is on record?
A: inconclusive: 16.5 µM [inhibitor, partial curve, poor fit]

Q: For `O=C(Nc1ccccc1N1CCOCC1)c1cccc([N+](=O)[O-])c1`, which Potency is on record?
A: inconclusive: 3.7 µM [inhibitor, partial curve]

Q: Which “activity change, negative = inhibition” value does the source give for `O=C(CCNC(=O)c1ccccc1Cl)NCC(c1ccco1)N1CCCC1` (stereo not drawn) here?
A: inactive: -1.11%

Q: Which Potency does the source give for `COc1ccc(CN(C(=O)COc2ccc(C)c(C)c2)C2CCS(=O)(=O)C2)cc1OC` (stereo not drawn) here?
A: inconclusive: 8.28 µM [inhibitor, single point]

Q: For `CC(NCc1ccc(Cl)cc1Cl)C(O)c1ccccc1` (stereo not drawn), which Potency is on record?
A: active: 1.47 µM

Q: For `CC1=C(C#N)C(Nc2cc(C)ccn2)(C(F)(F)F)C(=O)N1` (stereo not drawn), which Potency is on record?
A: inconclusive: 18.5 µM [inhibitor, single point]

Q: For `CCCCOCCCN1C(C)=CC(=C2C(=O)NC(=S)NC2=O)C=C1C`, which Potency is on record?
A: inconclusive: 0.928 µM [inhibitor, full curve, poor fit]

Q: Which “activity change, negative = inhibition” value does the source give for `COc1ccccc1N(C)S(=O)(=O)c1ccc(Cl)c(C(=O)NNC(=O)c2ccccc2O)c1` here?
A: inactive: 4.89%

Q: With `Clc1ccc2c(c1)C(C1=NCCN1)c1ccccc1CS2` (stereo not drawn) as the molecule, how does the “activity change, negative = inhibition” value read?
A: inactive: -18.3%

Q: With `O=C(CN1C(=O)NC2(CCCCCCC2)C1=O)NCc1ccc2c(c1)OCO2` as the molecule, how does the Potency read?
A: inconclusive: 18.5 µM [inhibitor, single point]

Q: With `COc1ccc(C(=O)Nn2c(C3CCC3)nc3ccccc3c2=O)c(OC)c1` as the molecule, how does the Potency read?
A: inconclusive: 0.0828 µM [inhibitor, full curve, poor fit]

Q: Which “activity change, negative = inhibition” value does the source give for `CCCCC(CC)CNC(=O)c1cc2ccccc2c(=O)o1` (stereo not drawn) here?
A: inactive: -15.8%

Q: With `COc1ccc(-c2cc(-c3ccc(OC)c(OC)c3)n[nH]2)c(O)c1` as the molecule, how does the Potency read?
A: inconclusive: 18.5 µM [inhibitor, single point]

Q: Which Potency does the source give for `CCOC(=O)c1c(C)n(C)c2ccc(OC)c(NC(=O)CN3CCN(C(=O)c4ccco4)CC3)c12` here?
A: inconclusive: 11.7 µM [inhibitor, partial curve]

Q: With `O=C(NC1CCCC1)c1ccc(Br)s1` as the molecule, how does the Potency read?
A: inconclusive: 10.4 µM [inhibitor, single point]

Q: For `O=C(CCNS(=O)(=O)c1ccc(Br)s1)NCc1ccc2c(c1)OCO2`, which “activity change, negative = inhibition” value is on record?
A: inactive: 7.74%

Q: Which Potency does the source give for `O=C(COc1ccc(Br)cc1)N1CCOCC1` here?
A: inconclusive: 13.1 µM [inhibitor, partial curve, poor fit]

Q: For `COc1ccc(O)c(-c2nc(N)nc(N)n2)c1`, which Potency is on record?
A: inconclusive: 16.5 µM [inhibitor, single point]

Q: With `O=C(c1ccc2c(c1)OCO2)N1CCC2(CC1)Oc1ccc(Cl)cc1C(=O)C21CC(c2cccnc2)=NO1` (stereo not drawn) as the molecule, how does the Potency read?
A: active: 13.1 µM

Q: For `Cc1cc(C(C#N)c2ccccc2)n2ncnc2n1` (stereo not drawn), which Potency is on record?
A: inconclusive: 4.15 µM [inhibitor, partial curve, poor fit]

Q: For `CC1CN(c2ccc(NC(=S)NNCCC#N)cc2)CC(C)O1` (stereo not drawn), which “activity change, negative = inhibition” value is on record?
A: inactive: 12.2%

Q: For `COc1ccc(C2C(C(=O)N3CCC(C(N)=O)CC3)CC(=O)N2c2ccc(OC)cc2)cc1` (stereo not drawn), which Potency is on record?
A: active: 5.22 µM

Q: With `CCC1C(=O)NCCN1C(=O)c1ccc2nc(Cc3ccc(OC)cc3)oc2c1` (stereo not drawn) as the molecule, how does the Potency read?
A: inconclusive: 10.4 µM [inhibitor, partial curve]

Q: With `CCc1ccc(C(=O)OCC(=O)N(CCOC)c2c(N)n(Cc3ccccc3)c(=O)[nH]c2=O)cc1` as the molecule, how does the “activity change, negative = inhibition” value read?
A: inactive: -30%

Q: For `c1ccc(Nc2ccccc2)cc1`, which “activity change, negative = inhibition” value is on record?
A: inactive: 38.6%

Q: With `CN(C)C=Nc1ccc(Cl)c(Cl)c1` as the molecule, how does the “activity change, negative = inhibition” value read?
A: inactive: 0%

Q: For `Cc1cccc(-n2ncc3c(N4CCCc5ccccc54)ncnc32)c1`, which “activity change, negative = inhibition” value is on record?
A: inactive: -32.4%

Q: With `CCOC(=O)CCCn1ncn2c(cc3occc32)c1=O` as the molecule, how does the Potency read?
A: inconclusive: 3.7 µM [inhibitor, full curve]

Q: Which Potency does the source give for `CCOC(=O)N1CCN(S(=O)(=O)c2ccc3c4c(cccc24)C(=O)N3)CC1` here?
A: inconclusive: 0.0657 µM [inhibitor, full curve, poor fit]

Q: With `O=C(Cc1cccs1)Nc1ccc(F)cc1F` as the molecule, how does the “activity change, negative = inhibition” value read?
A: inactive: -18%

Q: Which Potency does the source give for `C=CCn1cc(C(=O)NCc2ccco2)c(=O)c2cc(S(=O)(=O)N3CCCCCC3)ccc21` here?
A: inconclusive: 0.0037 µM [inhibitor, full curve, poor fit]

Q: For `CCOc1cccc(CNCCO)c1OCc1ccc(Cl)cc1Cl`, which Potency is on record?
A: inconclusive: 10.4 µM [inhibitor, single point]

Q: For `COCCNC(=O)c1sc2ncn(CC(=O)N3CCCCC3)c(=O)c2c1C`, which Potency is on record?
A: inconclusive: 0.0029 µM [inhibitor, full curve, poor fit]

Q: Which Potency does the source give for `CCOc1ccc(CCNC(=O)CS(=O)Cc2nc(-c3ccccc3C)oc2C)cc1OCC` (stereo not drawn) here?
A: inconclusive: 18.5 µM [inhibitor, single point]

Q: For `COc1cccc(C(=O)Nc2cc([N+](=O)[O-])ccc2N2CCN(C)CC2)c1`, which Potency is on record?
A: inconclusive: 18.5 µM [inhibitor, single point]

Q: With `COc1ccc(NC(=S)N(CCCN2CCOCC2)C(C)c2cc3ccccc3o2)cc1` (stereo not drawn) as the molecule, how does the “activity change, negative = inhibition” value read?
A: inactive: -13.1%

Q: For `COc1ccccc1NS(=O)(=O)c1ccc(C)c(NC(=O)NCCCl)c1`, which Potency is on record?
A: inconclusive: 9.28 µM [inhibitor, partial curve, poor fit]

Q: With `O=c1c2c3c(sc2nc(NCCO)n1CCc1ccccc1)CCCCC3` as the molecule, how does the Potency read?
A: inconclusive: 0.0586 µM [inhibitor, full curve]

Q: Which Potency does the source give for `CCCCC1=CC2=CC(=O)C(C)(OC(=O)CC)C(=O)C2=CN1Cc1ccco1` (stereo not drawn) here?
A: inconclusive: 10.4 µM [inhibitor, single point]

Q: Which “activity change, negative = inhibition” value does the source give for `Nc1cc(C(=O)O)ccc1N1CCCCC1` here?
A: inactive: -22%

Q: Which Potency does the source give for `Cc1nnc(Nc2ccc3c(c2)OCO3)c2ccccc12` here?
A: inconclusive: 0.415 µM [inhibitor, full curve]

Q: With `O=C(NCC1CCCO1)C(c1cccs1)N(Cc1cccs1)C(=O)c1ccc(-c2ccccc2)[nH]1` (stereo not drawn) as the molecule, how does the “activity change, negative = inhibition” value read?
A: inactive: 82.1%

Q: For `S=C(NC1CC1)N1CCCc2ccccc21`, which Potency is on record?
A: inconclusive: 18.5 µM [inhibitor, single point]

Q: Which Potency does the source give for `COc1ccc(CN(C)C(C)C(=O)N(C)CC(=O)Nc2ccc(C)cc2)cc1F` (stereo not drawn) here?
A: inconclusive: 18.5 µM [inhibitor, single point]

Q: For `Cc1ccc2c(c1)N(CC(=O)Nc1c(C)cccc1C)C(=O)c1cccnc1O2`, which Potency is on record?
A: inconclusive: 18.5 µM [inhibitor, single point]

Q: For `CN(Cc1cccs1)C(=O)Cn1cnc2ccccc2c1=O`, which “activity change, negative = inhibition” value is on record?
A: inactive: 26.6%

Q: Which Potency does the source give for `CCCCCC(=O)N[C@@H](c1ccccc1)[C@@H](O)C(=O)O[C@H]1C[C@@]2(O)[C@@H](OC(=O)c3ccccc3)C3[C@](C)(C(=O)[C@H](OC(C)=O)C(=C1C)C2(C)C)[C@@H](O)C[C@H]1OC[C@@]31OC(C)=O` (stereo partly drawn) here?
A: inconclusive: 0.0738 µM [inhibitor, full curve, poor fit]

Q: With `CCc1c(C(=O)NCCc2ccc(OC)c(OC)c2)[nH]c(C)c1C(C)=O` as the molecule, how does the “activity change, negative = inhibition” value read?
A: inactive: 45.9%

Q: For `COc1ccc(CCN(Cc2cc3cc(C)c(C)cc3nc2Cl)C(=O)C2CC2)cc1`, which Potency is on record?
A: inconclusive: 0.165 µM [inhibitor, full curve, poor fit]

Q: Which Potency does the source give for `N#Cc1ccccc1OCC(=O)OCCCOC(=O)COc1ccccc1C#N` here?
A: inconclusive: 18.5 µM [inhibitor, single point]

Q: Which Potency does the source give for `O=C(c1cccs1)C1CCCN(Cc2nc(Cc3ccccc3F)no2)C1` (stereo not drawn) here?
A: inconclusive: 1.04 µM [inhibitor, partial curve, poor fit]

Q: Which Potency does the source give for `COC(=O)/C(C#N)=C/c1c(N2CCN(Cc3ccc4c(c3)OCO4)CC2)nc2c(C)cccn2c1=O` here?
A: inconclusive: 3.7 µM [inhibitor, full curve, poor fit]

Q: For `COc1ccccc1/C=C/[C@@H]1C[C@H]2CN(Cc3cccc(Cl)c3)C(=O)[C@]23CCCN13`, which “activity change, negative = inhibition” value is on record?
A: inactive: 3.14%

Q: With `CCOC(=O)C1=C(CC)Nc2ccccc2N=C1NC(=O)c1ccc(OC)c(S(=O)(=O)N2CCCCC2C)c1` (stereo not drawn) as the molecule, how does the Potency read?
A: inconclusive: 2.33 µM [inhibitor, full curve]

Q: With `COc1ccc(/C=N\N=C(N)N)cc1` as the molecule, how does the “activity change, negative = inhibition” value read?
A: inactive: 7.28%

Q: Which Potency does the source give for `O=C(c1ccc(Cl)cc1)C1CCCN(Cc2cccc3cnccc23)C1` (stereo not drawn) here?
A: inconclusive: 14.7 µM [inhibitor, partial curve, poor fit]

Q: For `O=C(OCc1csc(Nc2ccccc2)n1)c1ccc(Cl)cc1`, which “activity change, negative = inhibition” value is on record?
A: inactive: 76%

Q: With `C[C@]12CC[C@@H]3c4ccc(O)cc4CC[C@H]3[C@@H]1CC[C@@H]2O` as the molecule, how does the Potency read?
A: inactive and inconclusive: 6.75 µM [inhibitor, partial curve, poor fit]

Q: With `O=C(Cc1ccccc1)c1c[nH]c(C(=O)NCCCN2CCOCC2)c1` as the molecule, how does the Potency read?
A: inconclusive: 0.522 µM [inhibitor, full curve, poor fit]

Q: Which “activity change, negative = inhibition” value does the source give for `Cc1ccc2nc3c(cc(C(=O)NCC4CCCO4)c(=N)n3CC3CCCO3)c(=O)n2c1` (stereo not drawn) here?
A: inactive: 53.8%

Q: Which Potency does the source give for `COC(=O)c1sc(N)c(C(=O)OC)c1CSc1nnc(-c2ccccc2Cl)n1C` here?
A: inconclusive: 0.415 µM [inhibitor, full curve]

Q: For `CCOc1ccc(-c2nnn(CC(=O)N3CCCC3)n2)cc1OCC`, which Potency is on record?
A: inconclusive: 5.22 µM [inhibitor, partial curve, poor fit]

Q: For `Fc1ccc(C2c3cccn3CCN2C(=S)Nc2cccc(F)c2)cc1` (stereo not drawn), which Potency is on record?
A: inconclusive: 11.7 µM [inhibitor, single point]

Q: With `CC(=O)NC1(c2cccc(F)c2)CCN(CC(=O)NC(C)C)CC1` as the molecule, how does the Potency read?
A: active: 1.85 µM

Q: For `CCC(C(=O)OCC(=O)c1ccc(OC)cc1OC)c1ccccc1` (stereo not drawn), which Potency is on record?
A: inconclusive: 0.104 µM [inhibitor, full curve, poor fit]

Q: With `COC(=O)/C(C#N)=C/c1c(N2CCN(c3ccccc3)CC2)nc2c(C)cccn2c1=O` as the molecule, how does the Potency read?
A: inconclusive: 13.1 µM [inhibitor, single point]
